Assay [1] concerns the target β-catenin (human (endogenous in BT549)) (UniProt P35222). Description: co-IP; IP-WB from lysates of BT549-derived non-CSC (also with ectopic lnc408 or sh-CBY1) and CSC (also with ectopic CBY1 or sh-lnc408); antibody on Protein G Dynabeads; which antibody precipitated is not told.
In assay [2] the target is β-catenin (human (endogenous in HEK293T)) (UniProt P35222). Description: co-IP; IP-WB from lysates (lysis buffer with Triton X-100) of HEK293T cells transfected with CBY1 WT or S20A; antibody on Protein G Dynabeads, overnight, five washes; antibodies against 14-3-3, β-catenin and CBY1; which one precipitated is not told.

Amino acid sequences for entries named in this document (tags omitted).
UniProt P35222: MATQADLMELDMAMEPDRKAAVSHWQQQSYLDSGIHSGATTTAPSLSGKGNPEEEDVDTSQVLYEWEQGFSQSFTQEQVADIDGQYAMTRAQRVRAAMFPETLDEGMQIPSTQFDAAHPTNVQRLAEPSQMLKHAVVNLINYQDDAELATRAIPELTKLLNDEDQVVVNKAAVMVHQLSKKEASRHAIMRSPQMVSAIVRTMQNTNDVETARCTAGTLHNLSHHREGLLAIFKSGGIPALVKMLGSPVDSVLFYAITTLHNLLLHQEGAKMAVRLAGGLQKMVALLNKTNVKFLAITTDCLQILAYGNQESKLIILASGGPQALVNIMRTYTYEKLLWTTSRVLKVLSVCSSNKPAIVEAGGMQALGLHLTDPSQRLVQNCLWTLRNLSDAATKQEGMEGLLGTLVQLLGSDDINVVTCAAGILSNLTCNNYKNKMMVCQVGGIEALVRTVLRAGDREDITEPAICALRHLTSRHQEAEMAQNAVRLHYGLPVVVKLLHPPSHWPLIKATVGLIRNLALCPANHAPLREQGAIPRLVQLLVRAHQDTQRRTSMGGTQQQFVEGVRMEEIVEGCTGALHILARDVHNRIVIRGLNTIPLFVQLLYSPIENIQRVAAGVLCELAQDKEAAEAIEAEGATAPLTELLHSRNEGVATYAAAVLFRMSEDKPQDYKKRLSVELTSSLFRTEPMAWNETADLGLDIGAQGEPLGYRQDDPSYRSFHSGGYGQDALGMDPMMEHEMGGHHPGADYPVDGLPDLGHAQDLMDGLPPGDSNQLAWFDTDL

Results are given in words; binding and its absence hold for the method and conditions named. Binding seen in cells or lysates may run through a third protein. Some results given as binding are weak or reduced against the parent protein; the word gives no strength.

“CBY1 (chibby 1) (from UniProt Q9Y3M2 1-126)”: the binding result in assay [1] is reported as “binds”.

Consider “ectopic CBY1 (oeCBY1) (from UniProt Q9Y3M2 1-126)”, for which the binding result in assay [1] is “binds”.

Take “wild-type CBY1 (chibby 1) (from UniProt Q9Y3M2 1-126)”: the binding result in assay [2] is reported as “binds”.

For the origin of these results see paper PMC8088435.
